Measurements reported in paper PMC12069692, “Pharmacological inhibition of PLK1/PRC1 triggers mitotic catastrophe and sensitizes lung cancers to chemotherapy” (Cell Death & Disease, 2025).
No constants are given. Whether binding was seen depends on the method and setting. Binding seen in cells or lysates may run through a third protein. Some results given as binding are weak or reduced against the parent protein; the word gives no strength.

Protein sequences, listed by entry. Tags and fused reporters are not part of them.
UniProt O43663: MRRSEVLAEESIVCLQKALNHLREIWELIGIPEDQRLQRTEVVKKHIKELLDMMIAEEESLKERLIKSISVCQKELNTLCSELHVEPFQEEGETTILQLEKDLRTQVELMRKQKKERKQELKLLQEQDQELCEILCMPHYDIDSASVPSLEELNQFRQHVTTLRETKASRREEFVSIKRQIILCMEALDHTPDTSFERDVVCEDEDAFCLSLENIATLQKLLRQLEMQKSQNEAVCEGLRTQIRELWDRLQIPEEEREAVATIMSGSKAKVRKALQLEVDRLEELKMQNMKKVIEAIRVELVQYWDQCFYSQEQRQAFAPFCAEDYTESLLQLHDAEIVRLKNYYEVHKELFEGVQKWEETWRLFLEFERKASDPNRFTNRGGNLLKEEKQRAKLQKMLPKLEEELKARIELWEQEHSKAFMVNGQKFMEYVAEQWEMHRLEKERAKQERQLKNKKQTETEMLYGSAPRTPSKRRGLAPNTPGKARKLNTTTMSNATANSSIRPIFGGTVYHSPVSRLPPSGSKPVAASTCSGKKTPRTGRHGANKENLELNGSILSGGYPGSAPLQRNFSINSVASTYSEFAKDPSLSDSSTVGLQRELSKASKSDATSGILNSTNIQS
UniProt P53350: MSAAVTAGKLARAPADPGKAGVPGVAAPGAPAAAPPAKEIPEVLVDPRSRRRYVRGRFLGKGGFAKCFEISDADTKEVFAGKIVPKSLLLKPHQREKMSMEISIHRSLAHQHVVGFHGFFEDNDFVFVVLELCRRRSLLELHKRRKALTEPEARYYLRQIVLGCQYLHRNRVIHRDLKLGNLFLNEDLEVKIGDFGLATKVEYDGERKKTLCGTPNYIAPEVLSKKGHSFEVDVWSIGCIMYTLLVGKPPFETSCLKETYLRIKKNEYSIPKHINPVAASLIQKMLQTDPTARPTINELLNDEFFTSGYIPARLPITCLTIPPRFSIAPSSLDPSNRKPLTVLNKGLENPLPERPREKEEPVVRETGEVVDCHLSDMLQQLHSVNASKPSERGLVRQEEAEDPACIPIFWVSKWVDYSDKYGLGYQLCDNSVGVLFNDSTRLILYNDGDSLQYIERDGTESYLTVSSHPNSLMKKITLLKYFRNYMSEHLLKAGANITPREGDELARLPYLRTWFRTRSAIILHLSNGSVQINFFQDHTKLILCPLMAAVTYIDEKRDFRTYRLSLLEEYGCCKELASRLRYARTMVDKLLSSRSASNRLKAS

Biological target: protein regulating of cytokinesis (PRC1) (human (endogenous in A549/DDP)) (UniProt O43663)
Test: co-IP; lysates of A549/DDP cells, untreated or treated with B4 (6 uM, 48 h), immunoprecipitated with anti-PRC1-coupled agarose beads for 2 h; PLK1 detected in the eluate

Question: With “Polo-like kinase 1 (PLK1) (from UniProt P53350 1-603)” as the substance, how does the binding read?
Answer: Its binding is “binds”.
